# Record: PubChem BioAssay AID504793 (Drosophila RNAi Screening Center, 2011)
# Assay: 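Genes required for cells to halt at G2/M after double-strand DNA breaks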 (primary screen)
# System: Drosophila S2R+ cells
# Reagent: long dsRNA against Drosophila genes, about 0.25 µg dsRNA per well
# Timing: 4 days of dsRNA, then 4 hours of drug before read-out
# Conditions: doxorubicin 0.5 µM for 4 hours to cause double-strand breaks, in cells also given a low, harmless dose of dsRNA against nbs to sensitise the assay
# Detection: 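Per-well count of mitotic cells stained for phospho-histone H3 after doxorubicin exposure, used as mitotic index; counts are raw and not normalised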
# Scale: mitotic cells: higher = more cells in mitosis, weaker G2 arrest
# Active means: 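Genes are called active only when high mitotic counts were reproduced with independent dsRNAs and mitosis was checked for delay without damage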
# Calls: active = confirmed in follow-up tests; inactive = not confirmed
# The screen tested about 23,000 reagents; below is an unselected part of those with a known target gene and a result. Of all reagents, 62 (0.27%) are marked active. 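Calls come from follow-up tests whose scores are not deposited, so confirmed genes may have low counts here; counts are not normalised per plate.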 Raw values vary from plate to plate and are shown uncorrected. Unmarked entries are inactive. Names joined by + are all predicted targets of the reagent.
The opening 8 entries as a preview:
gene,amplicon,"mitotic cells, replicate 1"
St4,DRSC07008,3
Lip2,DRSC02577,2
Lip2,DRSC02578,5
Nmda1,DRSC07479,6
Nmda1,DRSC26357,5
Larp7,DRSC18798,19
Larp7,DRSC27687,2
Flad2,DRSC02531,6

Main list, from the first entry:
gene,amplicon,"mitotic cells, replicate 1"
St4,DRSC07008,3
Lip2,DRSC02577,2
Lip2,DRSC02578,5
Nmda1,DRSC07479,6
Nmda1,DRSC26357,5
Larp7,DRSC18798,19
Larp7,DRSC27687,2
Flad2,DRSC02531,6
Flad2,DRSC27627,7
CG8349,DRSC03083,7
CG8818,DRSC07275,8
CG8818,DRSC28138,4
CG6295,DRSC16012,10
CG6295,DRSC24229,7
CG15142,DRSC02443,2
Rab32,DRSC05146,2
Rab32,DRSC07522,6
Rab32,DRSC28156,7
CG2310,DRSC15438,14
CG7408,DRSC10841,5
viaf,DRSC10326,7
CG6650,DRSC10685,3
Cpr49Ab,DRSC05341,3
Cpr49Ab,DRSC25034,6
CG34357,DRSC12211,6
CG34357,DRSC12334,3
CG34357,DRSC23031,7
CG34357,DRSC28043,4
CG34357,DRSC28595,13
ihog,DRSC03157,4
ihog,DRSC29581,15
obst-A,DRSC20543,9
CG31775 + CG42586,DRSC23266,2
Naprt,DRSC00630,9
Naprt,DRSC28652,6
Dhod,DRSC16647,9
boi,DRSC18425,3
boi,DRSC18598,7
boi,DRSC25851,5
CG14500,DRSC06471,10
Wdfy2,DRSC02822,9
Wdfy2,DRSC29755,9
twin,DRSC15259,5
twin,DRSC15831,5
twin,DRSC21363,16
twin,DRSC29620,6
yellow-g,DRSC08575,7
CG15344 (retired record),DRSC18029,15
slp2,DRSC00836,3
slp2,DRSC26622,5
CG15202,DRSC19649,15
Cyp6t1,DRSC20564,12
Cyp6t1,DRSC24235,10
CG12360 (retired record),DRSC14505,5
EloA,DRSC16109,11
EloA,DRSC23920,4
eIF4E6,DRSC14853,7
eIF4E6,DRSC25760,2
DCAF12,DRSC15475,13
PHDP,DRSC04635,6
Phyhd1,DRSC14911,6
Phyhd1,DRSC26408,10
dtn,DRSC17939,13
dtn,DRSC29824,7
CG15126,DRSC06548,5
SpdS,DRSC16408,5
CG7518,DRSC16253,7
CG7518,DRSC29146,7
Pen,DRSC03396,4
Pen,DRSC39160,3
Mtap,DRSC06890,2
CG13690,DRSC00359,9
eIF2Bdelta,DRSC04058,2
CG15471,DRSC18054,6
CG15471,DRSC26243,7
